# Among all 31,000 sequences or so, about 1,400 (4.5%) were called active.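 How the source made its calls: active means median seed-adjusted z-score above 1 or below -1; inactive means the rest.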 Some of the results follow.
# Experiment: Novel Modifiers of Survival Motor Neuron (SMN) Protein: Gene Identification via Genome-wide siRNA Screen;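 further: luminescence tracks full-length SMN protein made from the SMN2 reporter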
# Conditions: HEK293T SMN2-luciferase reporter, siRNA knockdown, 72 h; actives lie on both sides
# Method in brief: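 HEK293T cells stably carrying an SMN2 promoter/splicing cassette–luciferase reporter were reverse-transfected with 1 pmol siRNA per well (druggable-genome library, 3 siRNAs per gene) and grown 72 h at 37 °C. Luminescence, normalized to negative-control siRNA and log10-transformed, was scored as MAD.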
row,Sequence,median seed-adjusted z-score
1,GCAUCCAACCUUAAAUGAUTT against FMO5,inactive: 0.0069
2,CAAUAAUGCUCGUCUAUGUTT against DERL2,inactive: -0.27
3,GGUACUUUCUUAUUCAACUTT against MTM1,inactive: 0.406
4,CUGUUCCAGUUGUGGCUCUTT against KRTAP5-1,inactive: 0
5,AGAAAUCCAGGAGAAUGAATT against TERF2IP,inactive: 0.765
6,GCCCGUUAGUAAACCUGGATT against HTRA1,inactive: 0.031
7,CCUAAAACCUCGGGCAGAATT against ATP5I,inactive: -0.871
8,CUACUAGAUCAGUACCGAATT against MAN2A1,inactive: -0.397
9,GAGCUGGGAUGAUAAAGAUTT against AGPAT2,inactive: 0.38
10,CCAUUGCCGGCAUUUUUAATT against SLC35C2,inactive: -0.483
11,GGUCCAAGGAAGCACCAAATT against EIF2AK4,inactive: -0.188
12,GCACUUACAUGUGGAGAUATT against LEFTY1,inactive: 0.383
13,CCGUUAGCCUGAUCAUCUUTT against DPM2,inactive: -0.419
14,GGUUUGCCCUAAUCCGUCATT against TAF15,inactive: 0.357
15,CAAGCUUUGGGAACGAUCATT against PHF21B,inactive: 0.327
16,GCAAGAUCCUCUCUAAUAATT against GSS,inactive: 0.122
17,GGGACUCAUUGCUAACCCATT against TNPO3,inactive: 0.577
18,GGAGUCUACUUUACCGGUATT against BPIL2,inactive: -0.63
19,GAUGAGAAAUAUUCGAUUATT against SPAST,inactive: 0.0703
20,AGAGGAAGAUAGAUUUUCUTT against PFDN5,inactive: 0.562
21,GCAACAGCAUUGUCCGUGUTT against LRRN2,inactive: 0.324
22,CGGUGGAUAACGACAAGAATT against RGN,inactive: 0.132
23,AAGACAGGCUGAUCAACUATT against SPATA20,inactive: 0
24,CAUCCAUAAUUGGUGUAAATT against KIF20B,inactive: 0
25,GGCUAAGCUUGUACAAUAATT against CIITA,inactive: -0.109
26,UGAGGACAACUACCAGUUUTT against FCN2,inactive: 0.281
27,CUGUAUGGGUGGUCAAUCATT against ABCA1,active: -1.27
28,GAUUGAAGGAUUUGAGGUATT against PPP1R7,inactive: 0.0505
29,GGUGACUUCUUGCAUAGUATT against COL4A3BP,inactive: 0.0391
30,CCUGAAGACUCAAGACCAATT against CFB,inactive: 0.132

# Copied from the list.
# In median seed-adjusted z-score, AAGACAGGCUGAUCAACUATT against SPATA20 is entered as inactive: 0
# In median seed-adjusted z-score, CAAGCUUUGGGAACGAUCATT against PHF21B is entered as inactive: 0.327
